[1] abbreviates: after atropine administered during exercise.
The mark [2] stands for this setting: by 10 minutes of recovery, atropine test.

Like-named read-outs stand apart in the source and are kept apart here.

As to `CN1[C@@H]2CC[C@H]1C[C@@H](OC(=O)C(CO)c1ccccc1)C2` (some centres unmarked) [Atropine, atropine], the plasma epinephrine level result runs as follows: under setting [1], “significant reductions”; under setting [2], “returned to the resting values”. Besides, the plasma norepinephrine level result is, setting by setting: under setting [1], “significant reductions”; under setting [2], “returned to the resting values”. The plasma catecholamine levels result (during recovery, atropine at the end of exercise, versus baseline values) is given as “slightly lower than baseline values”.
